Some entries share one result that the patent states for a list of compounds. At least one structure is not confirmed: it was looked up by name or label, or the drawing left a doubt.
Experiment: Lesion severity assay (nuchal injection site)
Format: in vivo, Male Sprague Dawley rats
Settings: scale 0 no lesions to 5 worst lesions; 12 mM, 400 μl per 100 grams body weight, subcutaneous, nuchal area, 8 days
Method: Male Sprague Dawley rats (approximately 200 g) were purchased from Charles River Canada, Inc. and were shipped to the Animal Care Facility at the University of Vermont. Upon arrival they were housed in separate cages with corncob bedding and ad lib access to tap water and purina rat chow. The animal facility is maintained at a temperature of 71° F. +/− 1° F. with a 12-hour light/dark cycle, lights on at 6:00 am and off at 6:00 pm. Two days later (Day-3) all rats were shaved in the nuchal area and baseline color photographs of the nuchal area were taken (light halothane anesthesia was utilized to facilitate the shaving). Three days later (Day 0) experimental compounds were made up at 12 mM concentrations in vehicle (i.e., saline:PEG400:EtOH (5:4:1), pH 7.4). Animals were injected subcutaneously in the nuchal area with the various stock solutions at a dose of 400 μl per 100 grams body weight. Typical injection volumes, therefore, range from 1 to 1.5 ml per animal. Animals were injected using a modified Z-track technique to try and minimize outflow of injected compounds due to the high volume utilized. Each animal was weighed prior to injection and all injections were accomplished in an approximately two-hour period. […]
Means of body weights for each group were calculated and plotted over time (FIG. 9A), as were numerical means of the lesion severity index (FIG. 9B). […]

| Compound | lesion severity |
| --- | --- |
| Cobalt (III) Mesoporphyrin IX bisglycinate monosodium salt diisopropyl ester [(1-6)] | ≤ 1 |
| CCC1=C(C)c2cc3[n-]c(cc4nc(cc5[n-]c(cc1n2)c(C)c5CCC(=O)NC(C)C)C(CCC(=O)NC(C)C)=C4C)c(C)c3CC.NCC(=O)O.NCC(=O)[O-].[Co+3] [(4-4), Cobalt (III) mesoporphvrin IX bisglycinate, di—(N-isopropyl)amide] | ≤ 1 |

Reference: patent publication US20020165216A1, “Cobalt-porphyrin complexes and use thereof as an anti-obesity agent” (MitoKor, priority 2000, published 2002)
